Experimental data from article PMC4357727.
No constants are given. Whether binding was seen depends on the method and setting. Some results given as binding are weak or reduced against the parent protein; the word gives no strength.

Legend:
Assay in all cases: SEC; Rat1/Rai1/Rtt103 and rat1EDD/Rai1/Rtt103 complexes purified by affinity and ion-exchange chromatography (Tris-HCl pH 7.6), then Superose 6 in 25 mM Tris-HCl pH 7.6, 80 mM NaCl, 1 mM DTT, 1 mM MgCl2, 10% glycerol; elution profiles compared
[1] = biological target: T1, rat1 E203A/D233A/D235A (rat1EDD), catalytically inactive Rat1 (S. cerevisiae) (UniProt Q02792)
T1 sequence: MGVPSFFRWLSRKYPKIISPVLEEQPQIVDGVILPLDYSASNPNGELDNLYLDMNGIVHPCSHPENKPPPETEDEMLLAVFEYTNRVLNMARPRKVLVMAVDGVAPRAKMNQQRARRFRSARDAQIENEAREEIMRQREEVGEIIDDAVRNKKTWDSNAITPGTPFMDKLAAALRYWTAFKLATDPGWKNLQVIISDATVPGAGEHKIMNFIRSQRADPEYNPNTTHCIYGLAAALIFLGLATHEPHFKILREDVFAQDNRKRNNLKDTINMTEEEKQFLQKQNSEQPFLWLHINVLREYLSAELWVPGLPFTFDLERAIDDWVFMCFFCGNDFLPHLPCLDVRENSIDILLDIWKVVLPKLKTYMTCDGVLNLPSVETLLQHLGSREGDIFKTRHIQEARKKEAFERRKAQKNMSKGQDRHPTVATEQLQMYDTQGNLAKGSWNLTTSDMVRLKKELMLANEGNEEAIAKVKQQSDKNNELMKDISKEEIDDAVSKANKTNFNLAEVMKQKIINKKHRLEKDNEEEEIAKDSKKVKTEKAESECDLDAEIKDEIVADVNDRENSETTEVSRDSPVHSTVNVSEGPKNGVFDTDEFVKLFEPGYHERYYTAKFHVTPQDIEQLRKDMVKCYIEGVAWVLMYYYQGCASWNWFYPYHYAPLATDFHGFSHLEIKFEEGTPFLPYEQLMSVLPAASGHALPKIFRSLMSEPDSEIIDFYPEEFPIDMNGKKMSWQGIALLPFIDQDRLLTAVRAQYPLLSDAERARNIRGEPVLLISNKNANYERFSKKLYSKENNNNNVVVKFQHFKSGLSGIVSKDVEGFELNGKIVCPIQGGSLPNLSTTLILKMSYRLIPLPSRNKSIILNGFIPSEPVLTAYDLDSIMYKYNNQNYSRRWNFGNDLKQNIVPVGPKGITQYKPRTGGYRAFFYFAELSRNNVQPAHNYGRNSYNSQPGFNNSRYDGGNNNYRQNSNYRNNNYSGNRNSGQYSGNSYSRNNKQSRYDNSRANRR

[2] = biological target: T2, rat1EDD/Rai1 complex (S. cerevisiae) (UniProt Q02792+P53063)
T2 sequence 1: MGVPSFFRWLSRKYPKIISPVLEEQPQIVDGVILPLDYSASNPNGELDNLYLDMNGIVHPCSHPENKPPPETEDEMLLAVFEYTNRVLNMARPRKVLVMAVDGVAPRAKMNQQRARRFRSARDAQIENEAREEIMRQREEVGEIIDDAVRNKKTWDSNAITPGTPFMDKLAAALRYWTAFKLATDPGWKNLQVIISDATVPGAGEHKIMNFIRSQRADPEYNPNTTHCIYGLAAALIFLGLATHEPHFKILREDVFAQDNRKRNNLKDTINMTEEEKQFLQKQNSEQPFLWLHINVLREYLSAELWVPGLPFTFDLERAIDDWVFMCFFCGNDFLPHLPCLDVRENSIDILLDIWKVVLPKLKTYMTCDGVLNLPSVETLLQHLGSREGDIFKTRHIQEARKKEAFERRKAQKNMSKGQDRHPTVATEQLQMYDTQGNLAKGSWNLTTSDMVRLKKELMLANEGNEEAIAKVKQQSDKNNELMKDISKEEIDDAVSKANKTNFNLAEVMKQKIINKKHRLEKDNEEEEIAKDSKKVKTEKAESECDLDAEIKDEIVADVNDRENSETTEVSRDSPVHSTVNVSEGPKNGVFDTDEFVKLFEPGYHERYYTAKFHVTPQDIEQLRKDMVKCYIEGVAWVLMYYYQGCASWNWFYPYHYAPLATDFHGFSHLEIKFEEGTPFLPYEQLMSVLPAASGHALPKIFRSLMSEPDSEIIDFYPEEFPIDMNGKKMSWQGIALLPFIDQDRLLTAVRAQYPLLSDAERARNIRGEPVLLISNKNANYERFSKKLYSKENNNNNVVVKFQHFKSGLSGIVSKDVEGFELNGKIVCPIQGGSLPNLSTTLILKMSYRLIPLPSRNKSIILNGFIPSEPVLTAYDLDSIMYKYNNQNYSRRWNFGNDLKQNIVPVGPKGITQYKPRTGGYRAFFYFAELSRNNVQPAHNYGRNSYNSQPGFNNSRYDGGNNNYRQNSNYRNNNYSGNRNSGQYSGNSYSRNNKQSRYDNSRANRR
T2 sequence 2: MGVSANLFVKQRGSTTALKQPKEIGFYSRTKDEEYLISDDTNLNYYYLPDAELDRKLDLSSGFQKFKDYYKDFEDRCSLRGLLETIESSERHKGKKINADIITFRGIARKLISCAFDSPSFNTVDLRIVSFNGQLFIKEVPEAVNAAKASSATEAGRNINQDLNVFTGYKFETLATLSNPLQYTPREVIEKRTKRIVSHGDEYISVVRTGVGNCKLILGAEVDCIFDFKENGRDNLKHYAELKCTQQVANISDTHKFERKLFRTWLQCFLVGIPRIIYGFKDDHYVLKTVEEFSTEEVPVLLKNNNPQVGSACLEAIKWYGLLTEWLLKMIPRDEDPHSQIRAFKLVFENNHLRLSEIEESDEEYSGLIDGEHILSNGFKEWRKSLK

[3] = biological target: T3, Rat1 (S. cerevisiae 5'-3' exoribonuclease) (S. cerevisiae) (UniProt Q02792)
T3 sequence: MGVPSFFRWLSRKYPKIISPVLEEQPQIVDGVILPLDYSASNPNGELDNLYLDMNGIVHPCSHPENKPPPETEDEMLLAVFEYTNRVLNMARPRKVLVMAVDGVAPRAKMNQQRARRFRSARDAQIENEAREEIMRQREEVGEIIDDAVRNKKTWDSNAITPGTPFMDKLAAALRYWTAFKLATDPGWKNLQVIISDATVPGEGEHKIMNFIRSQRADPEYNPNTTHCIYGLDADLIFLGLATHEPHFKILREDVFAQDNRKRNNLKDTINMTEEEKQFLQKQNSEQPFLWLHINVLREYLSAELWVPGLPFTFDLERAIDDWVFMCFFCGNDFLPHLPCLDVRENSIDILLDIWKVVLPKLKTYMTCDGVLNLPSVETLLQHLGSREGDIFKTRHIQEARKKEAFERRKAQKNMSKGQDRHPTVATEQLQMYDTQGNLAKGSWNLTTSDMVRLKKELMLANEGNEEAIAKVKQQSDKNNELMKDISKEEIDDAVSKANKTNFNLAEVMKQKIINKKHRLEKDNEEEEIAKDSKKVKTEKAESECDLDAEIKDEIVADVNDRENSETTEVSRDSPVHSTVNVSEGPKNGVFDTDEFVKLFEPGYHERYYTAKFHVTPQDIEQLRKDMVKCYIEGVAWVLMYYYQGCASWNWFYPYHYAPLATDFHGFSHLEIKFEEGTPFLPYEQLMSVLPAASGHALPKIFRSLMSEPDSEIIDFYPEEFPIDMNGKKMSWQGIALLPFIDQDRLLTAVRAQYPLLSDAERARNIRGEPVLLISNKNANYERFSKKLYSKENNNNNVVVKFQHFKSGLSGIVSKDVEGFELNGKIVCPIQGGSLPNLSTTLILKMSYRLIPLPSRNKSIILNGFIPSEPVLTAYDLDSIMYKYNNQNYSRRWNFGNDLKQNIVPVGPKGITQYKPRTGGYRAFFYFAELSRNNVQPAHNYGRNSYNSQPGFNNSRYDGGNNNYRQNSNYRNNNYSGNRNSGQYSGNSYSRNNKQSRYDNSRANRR

[4] = biological target: T4, Rat1/Rai1 complex (S. cerevisiae) (S. cerevisiae) (UniProt Q02792+P53063)
T4 sequence 1: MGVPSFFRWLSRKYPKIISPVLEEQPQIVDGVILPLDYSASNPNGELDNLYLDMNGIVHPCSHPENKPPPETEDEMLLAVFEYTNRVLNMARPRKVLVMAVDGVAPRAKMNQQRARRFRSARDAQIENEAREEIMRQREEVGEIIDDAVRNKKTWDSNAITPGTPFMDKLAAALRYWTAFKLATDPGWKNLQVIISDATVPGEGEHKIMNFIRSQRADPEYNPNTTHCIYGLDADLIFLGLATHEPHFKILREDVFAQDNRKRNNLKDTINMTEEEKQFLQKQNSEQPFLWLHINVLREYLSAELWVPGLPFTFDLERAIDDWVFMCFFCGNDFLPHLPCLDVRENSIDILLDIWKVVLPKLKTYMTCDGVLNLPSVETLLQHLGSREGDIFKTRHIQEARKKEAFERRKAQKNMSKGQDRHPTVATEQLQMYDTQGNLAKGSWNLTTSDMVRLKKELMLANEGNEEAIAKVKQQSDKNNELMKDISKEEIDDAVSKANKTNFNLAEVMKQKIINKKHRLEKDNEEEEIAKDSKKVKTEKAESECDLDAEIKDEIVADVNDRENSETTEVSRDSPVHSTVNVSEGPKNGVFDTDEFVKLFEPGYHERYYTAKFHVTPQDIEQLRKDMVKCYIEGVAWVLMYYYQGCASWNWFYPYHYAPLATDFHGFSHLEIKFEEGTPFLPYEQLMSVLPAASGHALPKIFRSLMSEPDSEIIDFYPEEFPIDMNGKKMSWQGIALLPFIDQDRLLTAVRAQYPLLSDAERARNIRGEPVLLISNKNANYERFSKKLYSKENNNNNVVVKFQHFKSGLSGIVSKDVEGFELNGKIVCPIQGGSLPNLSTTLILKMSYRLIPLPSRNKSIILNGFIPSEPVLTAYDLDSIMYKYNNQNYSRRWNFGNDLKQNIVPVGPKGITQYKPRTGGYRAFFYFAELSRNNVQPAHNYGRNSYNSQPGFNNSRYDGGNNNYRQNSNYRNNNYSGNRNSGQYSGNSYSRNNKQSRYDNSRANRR
T4 sequence 2: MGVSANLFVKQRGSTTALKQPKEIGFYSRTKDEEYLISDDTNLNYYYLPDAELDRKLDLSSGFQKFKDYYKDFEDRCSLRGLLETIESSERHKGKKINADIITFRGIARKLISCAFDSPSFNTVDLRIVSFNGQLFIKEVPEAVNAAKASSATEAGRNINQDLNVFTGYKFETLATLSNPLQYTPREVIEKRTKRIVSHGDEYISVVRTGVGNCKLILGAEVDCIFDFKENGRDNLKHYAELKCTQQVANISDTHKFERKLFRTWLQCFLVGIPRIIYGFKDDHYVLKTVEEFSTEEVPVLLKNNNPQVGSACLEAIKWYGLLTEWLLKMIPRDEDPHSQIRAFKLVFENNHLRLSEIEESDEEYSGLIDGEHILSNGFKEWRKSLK

binding [1]: binds weakly | binding [2]: binds weakly | binding [3]: binds | binding [4]: binds
B1: Rtt103 (S. cerevisiae) (protein, UniProt Q05543 1-409)
chain: MPFSSEQFTTKLNTLEDSQESISSASKWLLLQYRDAPKVAEMWKEYMLRPSVNTRRKLLGLYLMNHVVQQAKGQKIIQFQDSFGKVAAEVLGRINQEFPRDLKKKLSRVVNILKERNIFSKQVVNDIERSLKTESSPVEALVLPQKLKDFAKDYEKLVKMHHNVCAMKMRFDKSSDELDPSSSVYEENFKTISKIGNMAKDIINESILKRESGIHKLQSTLDDEKRHLDEEQNMLSEIEFVLSAKDPSRLNKNVDEDNIIPTYEVGDGDDDDDDGDNDDDDDDDDDDKNYDDRSNDSNYGVTNISTTDKKNEVVEKTDSEHKNSTHNPSDNQFGMKRTHDMIGHDDANDIPEKKVHLDSKTSEDGTFNSEDGHYELDIEGHVGAQTDEGVENSGGVSSSIQDLLSKLAN
